Measurements: publication PMC12040169 (PLOS Biology, 2025)
The list shows a part of the results.

System: T1, CTL2-GFP (C. trachomatis L2/434/Bu, GFP-expressing)
T1 construct: L2/434/Bu, GFP-expressing
Parameters: species or system HeLa; Intracellular C. trachomatis growth in HeLa cells, bulk GFP fluorescence relative to DMSO
Conditions: bulk GFP, single well; 28.5 h, 10 µM; inhibitor

Compound	% of control remaining [%]
O=C(NCC1(c2ccccc2)CCC1)C1CCCN(C(=O)c2ccoc2)C1 (stereo not drawn) [CBK296670]	151.573
Cc1cc(NC(=O)CN2CCOC(CNc3cccnn3)C2)on1 (stereo not drawn) [CBK305231]	117.835
COc1ccc2[nH]c(SCC(=O)Nc3ccc(Br)cc3)nc2c1 [CBK263447]	112.03
CC(=O)N1N=C(c2ccc3c(c2)OCO3)CC1c1ccc(C(=O)O)cc1 (stereo not drawn) [CBK286547]	102.819
O=S(=O)(Cc1cc(Cl)ccc1C(F)(F)F)c1cc2c(N3CCNCC3)nccc2s1 [CBK049960C]	72.4191
O=C(c1cccs1)N1CCC[C@@H]1Cn1c(=O)oc2ccccc21 [CBK284528]	104.121
O=S(=O)(NCCN1CCOCC1)c1ccc(Cl)c(Cl)c1Cl [CBK264973]	129.955
Cc1cc(C)c2nc(C(F)(F)F)nc(NCCCN3CCOCC3)c2c1 [CBK266753]	93.8891
Cc1ccn2c(=O)c(C(=O)NCc3cccnc3N3CCOCC3)cnc2c1 [CBK298316]	107.926
O=C(NC1CC(=O)N(CC(F)(F)F)C1)c1cnc(-c2ccncc2)s1 (stereo not drawn) [CBK305546]	130.629
Cc1nccn1CCC1CCN(C(=O)c2cnn(C)c2)CC1 [CBK281951]	177.183
CN(Cc1ccc2ncccc2c1)C(=O)CC1CCN(CCc2ccccc2)CC1 [CBK286261]	89.5022
CC1(C)Cc2c(oc(N)c2C#N)CO1 [CBK014395]	115.892
O=C(Cc1c[nH]c2ccccc12)NC(Cc1ccccc1)C(=O)O (stereo not drawn) [CBK286770]	79.2459
O=C(O)C1CCCN1S(=O)(=O)c1ccc([N+](=O)[O-])cc1 (stereo not drawn) [CBK261424]	100
O=S(=O)(c1ccc(Br)cc1C(F)(F)F)N1CCOCC1 [CBK062405]	94.7112
CC(C)n1c(=O)[nH]c2ccncc2c1=O [CBK015763]	129.679
CC(C)CCC(C)NC(=O)c1ccc(Oc2ccc(F)cc2)cc1 (stereo not drawn) [CBK295650]	128.034
Nc1nonc1C(=O)NCCNCc1ccc(Cl)cc1 [CBK267194]	142.284
Nc1cc(O)nc(SCC(=O)N2CCN(c3ccccc3)CC2)n1 [CBK267925]	117.976
Cc1nn(-c2ccccc2)c2[nH]c(=O)c(CNC(C)C)cc12 [CBK282899]	99.7296

Compound	% of control remaining [%]
COc1ccc(C(=O)Nc2ccccc2N2CCN(C)CC2)cc1Cl [CBK268001]	122.631
Nc1c(-c2cc(F)cc(F)c2)cnc2ncccc12 [CBK083677]	84.2517
N#C/C(=N/Nc1ccc(Br)cc1)C1=NC(=O)CS1 [CBK018747]	120.652
O=C(COC(=O)c1ccncc1)c1ccc(OC(=O)c2ccccc2)cc1 [CBK265169]	117.061
COC(=O)Nc1ccccc1N1CCN(CCCCN2CCN(c3ccccc3)C2=O)CC1 [CBK024372C]	100.793
O=C(C1CCC1)N1CCC(n2c(=O)[nH]c3ccccc32)CC1 [CBK149709]	113.037
Clc1ccc(-c2cn(-c3cnc4ccccc4c3)nn2)cc1 [CBK113044]	103.825
COc1ncccc1C(=O)N1CCN(CCc2ccccc2)CC1 [CBK200226]	64.4258
CCc1ccccc1NC(=O)Cc1ccc(OC)cc1 [CBK087898]	103.756
Cc1ccccc1NC(=O)NCc1ccccc1F [CBK105832]	105.319
CN1CCN(C(=O)c2[nH]c3ccccc3c2NS(=O)(=O)c2cccc3cccnc23)CC1 [CBK050041]	120.03
CCC(CC)CNc1ncnc2ccc(S(C)(=O)=O)cc12 [CBK306495]	91.9429
COc1cccc([C@H]2CN(C(=O)c3ccccc3)[C@@H]3CCN(Cc4cccc(F)c4)C[C@H]23)c1 [CBK285626]	89.9046
CCOC(=O)c1cc2c(CNc3ccc(OC)nc3)cccc2o1 [CBK006086]	100
CC(C)(C)OC(=O)NCCc1ccc(Nc2cc(-c3cc4ccccc4s3)ncn2)cc1 [CBK090959]	110.098
CN1CCCN(c2nc(-c3cccc(C(F)(F)F)c3)cn3ccnc23)CC1 [CBK066519]	150.809
Nc1nc(COn2c(-c3ccccc3)nc3ccccc3c2=O)nc(-c2ccccc2O)n1 [CBK266689]	129.127
COc1ccc(C(NC(=O)C2CCCN(C(=O)NC(=O)c3ccccc3)C2)c2ccccc2C)cn1 (stereo not drawn) [CBK075023]	100
C=C1C2(C(=O)N3CCC(Oc4cccnc4)CC3)CCC(C2)C1(C)C (stereo not drawn) [CBK282082]	84.2559
O=C(Nc1nnc(Cc2cccs2)o1)c1ccccc1 [CBK287831]	107.066
Cc1ncc([N+](=O)[O-])n1Cc1nnc(S)n1C [CBK267873]	117.523

Compound	% of control remaining [%]
Cc1cccc(-c2ncc(NC(=O)COc3ccc4ccccc4c3)nc2-c2ccc(N(C)C)cc2)c1 [CBK037575]	76.1977
Cc1nc(SCC(=O)O)nc(O)c1CCC(C)C [CBK269920]	79.7596
Cc1cc(Cl)c(S(=O)(=O)Nc2ccc(I)cc2)cc1OCC(N)=O [CBK266418]	176.626
CS(=O)(=O)Nc1ncc(Br)cc1C(=O)NCc1ccc(F)cc1 [CBK076538]	127.585
CCOc1ccc(S(=O)(=O)N(C)CC(=O)O)cc1 [CBK270032]	144.932
O=c1c2c(n3c(S)nnc3n1Cc1ccco1)-c1ccccc1CC21CCCCC1 [CBK265271]	135.754
CCCCN(CC)S(=O)(=O)c1ccc(-n2ncc(Cl)c(Cl)c2=O)cc1 [CBK305036]	47.8531
CC(C)N(C(=O)Cn1cccc2cc(C(F)F)nc1-2)C(C)C [CBK285012]	114.003
CN1CCN(CCC(=O)Nc2ccc3c(c2)CCC3)CC1 [CBK264197]	120.642
COc1ccc(CN(Cc2ccccc2OC)[C@@H]2COC[C@H]2c2ccc(F)cc2)cc1 [CBK286484]	79.1014
CCN(CC)c1ccc(C(=O)CN2CCC(Oc3nccnc3OCc3cccnc3)CC2)cc1 [CBK083167T]	112.738
O=C(NCC1CCCO1)C(=O)Nc1ccccc1F (stereo not drawn) [CBK263557]	135.893
Cc1ccc(COc2cc(C(=O)NCc3ccccn3)c3ccccc3n2)cc1 [CBK294403]	105.426
Cc1cc(NC(=O)c2ccccc2)n(-c2nc(C)c(C)c(=O)[nH]2)n1 [CBK287655]	105.963
CC/C(=C/c1sc2ccc3ccccc3c2[n+]1CCCS(=O)(=O)[O-])SC [CBK260901]	98.1494
COc1ccccc1N1CCN(C(=O)CCCC(=O)O)CC1 [CBK286904]	134.812
O=C(NCc1ccccn1)C(=O)N/N=C/c1ccccc1O [CBK262157]	109.501
O=C(OCc1cc2ccccc2cn1)N1CCOCC1 [CBK200121]	109.263
O=C(NCCN1CCN(Cc2ccccc2Cl)CC1)Nc1ccccc1 [CBK268039]	96.9929
Cc1ccc(C(=O)N2C3CCC2CC(O)(c2cccnc2F)C3)o1 (stereo not drawn) [CBK284423]	116.676
O=C(O)COc1ccc(NC(=O)C(c2ccccc2)c2ccccc2)cc1 [CBK264250]	136.873

Entries shown so far with two or more sulfur atoms (2):
Compound	% of control remaining [%]
O=S(=O)(Cc1cc(Cl)ccc1C(F)(F)F)c1cc2c(N3CCNCC3)nccc2s1 [CBK049960C]	72.4191
CC/C(=C/c1sc2ccc3ccccc3c2[n+]1CCCS(=O)(=O)[O-])SC [CBK260901]	98.1494

Additional results follow.

Compound	% of control remaining [%]
Cc1ccccc1COc1cccc2c1CCCC2 [CBK002562]	100.821
CS(=O)(=O)N1CC=CC1C(=O)NCCCc1ccc(F)cc1 (stereo not drawn) [CBK282631]	106.234
O=C(NC(Cc1ccsc1)c1nccs1)C1CCOCC1 (stereo not drawn) [CBK282824]	142.047
COc1ccc(/C=N/Nc2ccc([N+](=O)[O-])cc2)c(C(=O)O)c1OC [CBK261984]	118.102
c1ccc(N2CCN(c3cccc(-c4ccco4)n3)CC2)nc1 [CBK037662]	92.4568
CCNc1cc(-c2cccc(N(C)C)c2)ncn1 [CBK090878]	96.447
CC(C)(C)C1CCc2c(sc(NC(=O)CCC(=O)O)c2C(=O)Nc2ccccc2Cl)C1 (stereo not drawn) [CBK264146]	100
O=[N+]([O-])c1ccccc1CN1CCN(C/C=C/c2ccccc2)CC1 [CBK261518]	112.036
Cc1cn(S(=O)(=O)c2ccc(Cl)cc2)cn1 [CBK026492]	110.398
O=C(NCc1ccc(F)cc1)c1ncoc1-c1cccs1 [CBK283976]	94.8885
O=C(CN1CCSCC1)NNC(=S)Nc1ccccc1 [CBK262445]	100
O=C(c1ccccc1)c1cc(Cl)ccc1-n1ccnc1 [CBK012383]	111.467
Cc1cc(NC(=O)C(C)Oc2ccccc2)nc2c1c(=O)oc1ccccc12 (stereo not drawn) [CBK291153]	128.947
O=C(CSCc1ccc(Br)cc1)N1CCN(Cc2ccc3c(c2)OCO3)CC1 [CBK268059]	122.654
CC1CCc2c(sc3ncnc(OCC(=O)NC4CCCC4)c23)C1 (stereo not drawn) [CBK305893]	114.796
Cc1nn(C)cc1-c1cncn1CC(C)Oc1ccccc1Cl (stereo not drawn) [CBK281739]	133.613
O=C(O)COCC(=O)N1CCCC(c2nc(-c3ccccc3)c3ccccn23)C1 (stereo not drawn) [CBK046806]	210.855
Cc1cc(C)nc(NC(=O)COc2ccc([N+](=O)[O-])cc2)n1 [CBK265004]	97.2865
